Results: the supplement of paper PMC12823440, “Inhibitors supercharge kinase turnover through native proteolytic circuits” (Nature, 2025)
Where a name gives a salt, the structure may show the parent alone. The list shows a part of the results. The calls rarely recur for the same compound in another form.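 In K562 cells expressing nanoluciferase-fused kinases, luminescence was recorded at 4 h intervals between 2 and 18 h, normalized as percent of control with DMSO at 100% and a positive control at 0%. A significant (2 sigma) signal drop marks a time point as decreased. The authors' rule for a hit is not shown and takes in more than the number of time points.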

By UniProt entry, the sequences of proteins in these tests, tags left out. Where a name states a change or a piece, a line headed by the entry shows the natural chain unless it says otherwise.
UniProt Q05397, whole entry, looked up: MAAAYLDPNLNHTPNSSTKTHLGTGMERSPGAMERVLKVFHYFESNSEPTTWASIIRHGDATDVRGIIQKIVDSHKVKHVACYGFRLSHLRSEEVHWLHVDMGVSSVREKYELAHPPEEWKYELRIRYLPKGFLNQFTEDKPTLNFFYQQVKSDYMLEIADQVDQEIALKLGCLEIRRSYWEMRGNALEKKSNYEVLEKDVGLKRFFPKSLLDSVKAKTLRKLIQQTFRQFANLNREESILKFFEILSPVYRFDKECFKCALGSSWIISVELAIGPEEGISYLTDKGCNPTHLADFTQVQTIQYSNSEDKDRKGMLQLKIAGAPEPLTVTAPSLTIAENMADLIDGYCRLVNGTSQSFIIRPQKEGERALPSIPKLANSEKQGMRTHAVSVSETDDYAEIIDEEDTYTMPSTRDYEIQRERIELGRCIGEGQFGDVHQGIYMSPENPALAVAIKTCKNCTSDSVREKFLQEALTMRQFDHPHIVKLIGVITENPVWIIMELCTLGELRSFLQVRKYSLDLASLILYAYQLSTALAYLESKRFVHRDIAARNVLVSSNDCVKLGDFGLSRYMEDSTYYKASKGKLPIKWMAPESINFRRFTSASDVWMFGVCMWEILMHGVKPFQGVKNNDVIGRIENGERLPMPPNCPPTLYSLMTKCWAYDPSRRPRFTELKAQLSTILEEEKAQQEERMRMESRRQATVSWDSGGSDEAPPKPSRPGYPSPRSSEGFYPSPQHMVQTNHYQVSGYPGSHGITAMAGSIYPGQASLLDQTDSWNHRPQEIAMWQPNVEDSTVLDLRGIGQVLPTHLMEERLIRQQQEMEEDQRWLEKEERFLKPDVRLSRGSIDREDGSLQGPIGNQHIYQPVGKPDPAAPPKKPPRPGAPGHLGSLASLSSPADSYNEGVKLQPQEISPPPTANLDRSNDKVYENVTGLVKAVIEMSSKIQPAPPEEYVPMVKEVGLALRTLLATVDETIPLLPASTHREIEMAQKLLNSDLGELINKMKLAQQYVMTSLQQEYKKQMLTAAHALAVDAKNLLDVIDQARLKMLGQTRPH
UniProt Q14289, whole entry, looked up: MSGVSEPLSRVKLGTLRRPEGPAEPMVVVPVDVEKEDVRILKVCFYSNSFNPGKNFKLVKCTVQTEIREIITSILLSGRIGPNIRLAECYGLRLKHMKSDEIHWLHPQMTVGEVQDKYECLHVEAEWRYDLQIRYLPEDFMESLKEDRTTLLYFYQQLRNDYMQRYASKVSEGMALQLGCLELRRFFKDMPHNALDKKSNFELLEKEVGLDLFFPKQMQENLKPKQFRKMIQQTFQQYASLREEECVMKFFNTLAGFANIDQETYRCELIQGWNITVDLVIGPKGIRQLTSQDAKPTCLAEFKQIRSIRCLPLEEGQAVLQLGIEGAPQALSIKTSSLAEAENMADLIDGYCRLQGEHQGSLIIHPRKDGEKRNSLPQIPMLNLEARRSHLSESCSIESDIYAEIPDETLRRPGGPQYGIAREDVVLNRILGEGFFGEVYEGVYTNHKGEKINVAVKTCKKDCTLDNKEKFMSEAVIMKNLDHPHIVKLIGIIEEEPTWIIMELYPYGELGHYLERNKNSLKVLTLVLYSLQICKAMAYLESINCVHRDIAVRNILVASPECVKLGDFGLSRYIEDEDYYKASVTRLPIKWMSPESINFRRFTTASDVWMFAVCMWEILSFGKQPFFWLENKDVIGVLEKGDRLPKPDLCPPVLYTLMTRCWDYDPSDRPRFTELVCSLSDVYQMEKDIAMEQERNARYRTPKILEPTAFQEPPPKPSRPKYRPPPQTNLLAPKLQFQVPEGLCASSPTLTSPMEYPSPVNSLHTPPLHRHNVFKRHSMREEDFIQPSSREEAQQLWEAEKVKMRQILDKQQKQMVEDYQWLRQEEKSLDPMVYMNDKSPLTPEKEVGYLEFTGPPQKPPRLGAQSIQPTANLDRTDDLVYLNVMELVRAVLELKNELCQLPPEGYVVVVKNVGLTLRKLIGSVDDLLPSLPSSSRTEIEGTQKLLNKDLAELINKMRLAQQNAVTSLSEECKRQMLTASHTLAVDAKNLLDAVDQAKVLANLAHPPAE
UniProt P07949, whole entry, looked up: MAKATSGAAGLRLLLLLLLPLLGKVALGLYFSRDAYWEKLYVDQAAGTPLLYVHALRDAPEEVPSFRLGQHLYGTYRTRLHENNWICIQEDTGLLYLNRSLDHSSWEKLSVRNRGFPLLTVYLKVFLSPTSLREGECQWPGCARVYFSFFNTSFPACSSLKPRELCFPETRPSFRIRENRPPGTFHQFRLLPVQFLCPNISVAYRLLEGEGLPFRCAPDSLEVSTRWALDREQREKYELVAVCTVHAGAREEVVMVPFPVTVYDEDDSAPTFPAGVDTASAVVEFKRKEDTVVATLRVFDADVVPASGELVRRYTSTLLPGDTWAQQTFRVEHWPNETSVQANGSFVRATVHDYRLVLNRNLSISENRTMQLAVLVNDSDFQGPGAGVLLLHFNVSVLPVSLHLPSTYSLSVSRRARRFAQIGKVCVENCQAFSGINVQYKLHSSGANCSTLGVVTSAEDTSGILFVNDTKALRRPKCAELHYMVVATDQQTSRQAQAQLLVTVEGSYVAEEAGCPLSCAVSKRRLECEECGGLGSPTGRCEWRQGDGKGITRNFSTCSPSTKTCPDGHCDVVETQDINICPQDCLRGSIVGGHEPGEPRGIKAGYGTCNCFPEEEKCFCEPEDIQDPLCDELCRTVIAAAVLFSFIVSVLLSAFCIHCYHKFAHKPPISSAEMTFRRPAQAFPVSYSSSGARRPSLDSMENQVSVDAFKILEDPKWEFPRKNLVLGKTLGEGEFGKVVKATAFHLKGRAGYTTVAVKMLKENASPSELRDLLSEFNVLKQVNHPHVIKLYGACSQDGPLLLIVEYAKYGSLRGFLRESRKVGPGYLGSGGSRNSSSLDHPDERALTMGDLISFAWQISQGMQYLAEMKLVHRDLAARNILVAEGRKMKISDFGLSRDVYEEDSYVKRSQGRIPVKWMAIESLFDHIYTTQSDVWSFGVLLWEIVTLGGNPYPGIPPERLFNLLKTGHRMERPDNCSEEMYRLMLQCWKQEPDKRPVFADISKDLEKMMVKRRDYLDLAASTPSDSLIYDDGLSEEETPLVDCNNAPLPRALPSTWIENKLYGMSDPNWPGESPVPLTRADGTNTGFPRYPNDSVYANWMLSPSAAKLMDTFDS
UniProt P07949, whole entry M918T, looked up: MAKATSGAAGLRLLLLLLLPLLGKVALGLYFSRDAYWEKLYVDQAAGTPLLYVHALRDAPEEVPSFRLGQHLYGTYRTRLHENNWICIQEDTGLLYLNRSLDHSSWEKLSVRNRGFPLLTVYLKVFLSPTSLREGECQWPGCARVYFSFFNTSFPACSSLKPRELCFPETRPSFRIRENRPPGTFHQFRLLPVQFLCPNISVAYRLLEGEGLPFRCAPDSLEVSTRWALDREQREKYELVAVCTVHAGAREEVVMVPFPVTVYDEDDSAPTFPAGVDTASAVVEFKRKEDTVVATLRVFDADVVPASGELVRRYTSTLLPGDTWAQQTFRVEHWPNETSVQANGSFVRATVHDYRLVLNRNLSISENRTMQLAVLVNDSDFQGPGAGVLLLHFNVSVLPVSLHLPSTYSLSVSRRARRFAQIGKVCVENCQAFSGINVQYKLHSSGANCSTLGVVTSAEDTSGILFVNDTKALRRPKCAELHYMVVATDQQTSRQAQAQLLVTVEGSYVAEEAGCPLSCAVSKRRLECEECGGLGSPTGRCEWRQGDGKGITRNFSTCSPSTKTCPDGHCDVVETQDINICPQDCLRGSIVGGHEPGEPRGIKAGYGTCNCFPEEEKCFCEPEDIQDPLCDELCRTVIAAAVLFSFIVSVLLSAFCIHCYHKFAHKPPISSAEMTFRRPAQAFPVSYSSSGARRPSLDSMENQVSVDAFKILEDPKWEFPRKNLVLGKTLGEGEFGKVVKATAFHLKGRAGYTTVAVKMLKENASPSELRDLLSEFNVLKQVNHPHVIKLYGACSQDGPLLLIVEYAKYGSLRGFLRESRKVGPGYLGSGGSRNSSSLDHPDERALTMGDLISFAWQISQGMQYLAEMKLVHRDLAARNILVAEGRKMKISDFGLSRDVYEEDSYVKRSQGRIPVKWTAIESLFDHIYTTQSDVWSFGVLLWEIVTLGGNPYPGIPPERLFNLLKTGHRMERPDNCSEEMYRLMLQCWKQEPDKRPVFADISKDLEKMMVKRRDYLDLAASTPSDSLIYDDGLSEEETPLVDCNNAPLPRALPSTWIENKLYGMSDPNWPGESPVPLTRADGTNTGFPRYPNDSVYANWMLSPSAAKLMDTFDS
UniProt Q9BRS2: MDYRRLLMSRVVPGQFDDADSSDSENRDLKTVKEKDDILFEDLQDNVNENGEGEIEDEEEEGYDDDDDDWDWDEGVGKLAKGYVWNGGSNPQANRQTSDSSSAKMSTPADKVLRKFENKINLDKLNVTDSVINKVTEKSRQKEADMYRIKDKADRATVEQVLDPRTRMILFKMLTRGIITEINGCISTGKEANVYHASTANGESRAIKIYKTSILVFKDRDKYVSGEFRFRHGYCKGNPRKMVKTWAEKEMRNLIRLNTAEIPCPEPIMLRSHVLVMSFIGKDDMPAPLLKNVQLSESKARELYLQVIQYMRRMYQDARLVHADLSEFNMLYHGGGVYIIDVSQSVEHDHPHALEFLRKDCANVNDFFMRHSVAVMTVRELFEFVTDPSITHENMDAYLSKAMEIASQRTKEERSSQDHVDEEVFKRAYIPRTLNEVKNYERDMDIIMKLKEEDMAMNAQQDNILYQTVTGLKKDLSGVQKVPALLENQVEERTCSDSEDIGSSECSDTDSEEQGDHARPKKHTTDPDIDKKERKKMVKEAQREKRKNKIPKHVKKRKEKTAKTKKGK
UniProt Q13546: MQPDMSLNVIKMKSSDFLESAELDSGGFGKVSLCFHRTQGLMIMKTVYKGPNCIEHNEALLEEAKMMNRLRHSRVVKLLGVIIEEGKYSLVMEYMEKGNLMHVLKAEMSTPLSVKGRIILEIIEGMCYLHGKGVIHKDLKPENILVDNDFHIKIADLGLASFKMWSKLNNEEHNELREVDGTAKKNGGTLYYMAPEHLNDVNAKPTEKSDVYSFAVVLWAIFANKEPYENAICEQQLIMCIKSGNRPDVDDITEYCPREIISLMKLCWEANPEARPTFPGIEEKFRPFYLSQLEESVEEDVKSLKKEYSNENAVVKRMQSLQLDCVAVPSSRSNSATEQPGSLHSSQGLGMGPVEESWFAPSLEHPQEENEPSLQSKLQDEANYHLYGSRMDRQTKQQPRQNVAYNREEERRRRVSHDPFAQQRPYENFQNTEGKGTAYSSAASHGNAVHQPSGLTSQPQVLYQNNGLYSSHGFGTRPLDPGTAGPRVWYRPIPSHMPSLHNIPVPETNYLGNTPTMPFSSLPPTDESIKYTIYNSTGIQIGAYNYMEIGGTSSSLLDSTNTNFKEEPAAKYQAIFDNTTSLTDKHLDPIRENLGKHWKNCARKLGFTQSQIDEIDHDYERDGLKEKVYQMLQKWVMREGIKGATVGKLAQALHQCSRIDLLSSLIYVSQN

Tests used:
Test in all cases: number of time points (of 5) at which kinase-Nluc abundance scored as decreased, DMSO-normalised (count); higher = more persistent destabilization
Details in all cases: K562; 2-18 h
[1] = molecular target: PRKCA (UniProt P17252)
[2] = molecular target: PTK2 (UniProt Q05397)
[3] = molecular target: PTK2B (UniProt Q14289)
[4] = molecular target: RAF1 (UniProt P04049)
[5] = molecular target: RAF1_S257L (clone: RAF1_mut) (UniProt P04049)
[6] = molecular target: RET (UniProt P07949)
[7] = molecular target: RET_M918T (clone: RET_mut) (UniProt P07949)
[8] = molecular target: RIOK1 (UniProt Q9BRS2)
[9] = molecular target: RIPK1 (UniProt Q13546)
[10] = molecular target: RIPK2 (UniProt O43353)

Structure (SMILES)	number of time points [1]	number of time points [2]	number of time points [3]	number of time points [4]	number of time points [5]	number of time points [6]	number of time points [7]	number of time points [8]	number of time points [9]	number of time points [10]
COC(=O)Nc1ccc(-c2nc(N3CCOCC3)c3cnn(C4CCN(Cc5cccnc5)CC4)c3n2)cc1 (10 µM)	0	3	0	0	0	0	0	0	0	0
O=Nc1c(-c2c(O)[nH]c3cc(Br)ccc23)[nH]c2ccccc12 [GSK 3 Inhibitor IX] (2.5 µM)	0	1	0	0	0	4	1	0	0	0
NCC1CCC(CNc2nc(NCc3ccccc3OC(F)(F)F)ncc2[N+](=O)[O-])CC1 (stereo not given) [PKC-theta inhibitor] (10 µM)	0	0	0	1	3	4	4	2	4	0
Cc1cc(C)cc(NC(N)=Nc2ccccc2C(F)(F)F)c1 (10 µM)	0	0	0	0	0	0	0	0	0	0
O=C(ON=C1c2ccccc2-c2nc3ccccc3nc21)c1ccco1 (2.5 µM)	0	0	0	1	0	0	0	0	0	0
C#Cc1cccc(Nc2ncnc3cc(OC)c(NC(=O)N4C[C@H]5CCN(C)[C@H]5C4)cc23)c1 [Theliatinib] (10 µM)	0	0	0	0	0	0	0	0	0	0
Cc1nc[nH]c1CN1CCN(C(=O)N[C@@H](CC(C)C)C(=O)O)[C@@H](Cc2ccccc2)C1=O (10 µM)	0	0	0	0	0	0	0	0	0	0
CC(C)n1ncnc1-c1cn2c(n1)-c1ccc(O[C@@H](C)C(N)=O)cc1OCC2 (10 µM)	0	0	0	0	0	0	0	0	0	0
C=CC(=O)Nc1cccc(Oc2nc(Nc3ccc(N4CCN(C)CC4)c(F)c3)nc3[nH]ccc23)c1 [Avitinib (maleate)] (2.5 µM)	0	0	0	0	0	0	0	0	0	0
O=C(O)[C@H]1O[C@@H](Oc2cc3oc(-c4ccc(O)cc4)cc(=O)c3c(O)c2O)[C@H](O)[C@@H](O)[C@@H]1O [Scutellarin] (10 µM)	0	0	0	0	0	0	0	0	0	0
Nc1ncnc2c1nc(Br)n2[C@@H]1O[C@@H]2COP(=O)(O)O[C@H]2[C@H]1O [8-Bromo-cAMP sodium salt] (10 µM)	0	0	0	0	0	0	0	0	0	0
Cc1ccc(-n2nc(C(C)(C)C)cc2NC(=O)Nc2ccc(OCCN3CCOCC3)cc2)cc1 (10 µM)	0	0	0	0	0	0	0	0	0	0
CCCn1/c(=N/C(=O)c2cccc(C(N)=O)c2)[nH]c2ccccc21 [Takinib] (10 µM)	0	0	0	0	0	0	0	0	0	0
COc1cc2c(cc1O)C[C@H]1c3cc(O)c(OC)cc3CC[N@@+]1(C)C2 [Phellodendrine] (10 µM)	0	0	0	0	0	0	0	0	0	0

Single records, from the list above. Order of values: number of time points [1] | number of time points [2] | number of time points [3] | number of time points [4] | number of time points [5] | number of time points [6] | number of time points [7] | number of time points [8] | number of time points [9] | number of time points [10]
COc1cc2c(cc1O)C[C@H]1c3cc(O)c(OC)cc3CC[N@@+]1(C)C2 [Phellodendrine] (10 µM) in the list: 0 | 0 | 0 | 0 | 0 | 0 | 0 | 0 | 0 | 0
COC(=O)Nc1ccc(-c2nc(N3CCOCC3)c3cnn(C4CCN(Cc5cccnc5)CC4)c3n2)cc1 (10 µM) in the list: 0 | 3 | 0 | 0 | 0 | 0 | 0 | 0 | 0 | 0
